# The other results are listed elsewhere or left out.
# Chains of the proteins cited; added tags and fusions are not shown. Lines headed by an entry give the natural chain unless they say otherwise; changes in a name come on top.
# UniProt P03905, whole entry, looked up: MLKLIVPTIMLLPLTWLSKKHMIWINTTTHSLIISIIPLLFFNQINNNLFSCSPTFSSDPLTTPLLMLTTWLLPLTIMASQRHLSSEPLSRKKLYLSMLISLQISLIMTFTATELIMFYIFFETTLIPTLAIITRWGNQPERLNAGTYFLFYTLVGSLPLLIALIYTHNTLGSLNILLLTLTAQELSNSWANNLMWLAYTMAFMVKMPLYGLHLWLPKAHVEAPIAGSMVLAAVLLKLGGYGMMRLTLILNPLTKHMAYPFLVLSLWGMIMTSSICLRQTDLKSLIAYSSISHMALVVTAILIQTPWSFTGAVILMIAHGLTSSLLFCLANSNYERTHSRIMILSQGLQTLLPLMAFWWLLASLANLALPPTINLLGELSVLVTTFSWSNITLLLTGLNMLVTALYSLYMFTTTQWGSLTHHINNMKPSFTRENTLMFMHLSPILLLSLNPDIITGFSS
# UniProt Q9NZJ9: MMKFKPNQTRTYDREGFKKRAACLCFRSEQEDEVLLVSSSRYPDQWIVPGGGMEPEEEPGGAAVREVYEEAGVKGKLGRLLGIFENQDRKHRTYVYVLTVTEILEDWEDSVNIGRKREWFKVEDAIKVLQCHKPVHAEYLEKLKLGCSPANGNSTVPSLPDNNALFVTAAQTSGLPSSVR
# UniProt Q9UBB6: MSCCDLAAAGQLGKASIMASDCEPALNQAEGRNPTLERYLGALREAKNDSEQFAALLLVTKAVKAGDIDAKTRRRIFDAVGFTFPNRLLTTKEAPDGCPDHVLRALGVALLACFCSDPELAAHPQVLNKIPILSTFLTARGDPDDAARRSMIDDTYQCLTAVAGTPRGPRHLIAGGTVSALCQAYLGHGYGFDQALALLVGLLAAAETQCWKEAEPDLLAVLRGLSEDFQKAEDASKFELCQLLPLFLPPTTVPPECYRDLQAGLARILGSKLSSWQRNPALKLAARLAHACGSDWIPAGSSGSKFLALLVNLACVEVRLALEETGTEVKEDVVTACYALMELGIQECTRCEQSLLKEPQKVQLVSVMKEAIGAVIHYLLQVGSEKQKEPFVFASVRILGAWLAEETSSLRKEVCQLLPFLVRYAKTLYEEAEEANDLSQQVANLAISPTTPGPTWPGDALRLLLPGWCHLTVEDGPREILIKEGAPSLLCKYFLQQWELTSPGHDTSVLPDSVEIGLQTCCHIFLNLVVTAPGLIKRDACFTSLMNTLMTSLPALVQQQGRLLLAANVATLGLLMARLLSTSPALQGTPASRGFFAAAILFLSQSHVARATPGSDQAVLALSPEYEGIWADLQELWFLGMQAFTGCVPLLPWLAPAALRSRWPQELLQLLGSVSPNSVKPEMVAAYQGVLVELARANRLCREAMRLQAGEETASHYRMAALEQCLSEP
# UniProt Q15653: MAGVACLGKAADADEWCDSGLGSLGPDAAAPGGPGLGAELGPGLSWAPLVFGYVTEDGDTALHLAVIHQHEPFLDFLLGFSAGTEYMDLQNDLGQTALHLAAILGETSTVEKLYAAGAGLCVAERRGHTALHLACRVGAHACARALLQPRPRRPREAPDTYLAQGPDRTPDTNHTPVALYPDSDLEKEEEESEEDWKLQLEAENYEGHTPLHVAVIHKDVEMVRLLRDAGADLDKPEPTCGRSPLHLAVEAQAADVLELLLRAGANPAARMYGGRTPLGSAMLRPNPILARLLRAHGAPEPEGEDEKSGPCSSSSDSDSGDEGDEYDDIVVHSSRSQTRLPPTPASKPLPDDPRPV
# UniProt Q969V3: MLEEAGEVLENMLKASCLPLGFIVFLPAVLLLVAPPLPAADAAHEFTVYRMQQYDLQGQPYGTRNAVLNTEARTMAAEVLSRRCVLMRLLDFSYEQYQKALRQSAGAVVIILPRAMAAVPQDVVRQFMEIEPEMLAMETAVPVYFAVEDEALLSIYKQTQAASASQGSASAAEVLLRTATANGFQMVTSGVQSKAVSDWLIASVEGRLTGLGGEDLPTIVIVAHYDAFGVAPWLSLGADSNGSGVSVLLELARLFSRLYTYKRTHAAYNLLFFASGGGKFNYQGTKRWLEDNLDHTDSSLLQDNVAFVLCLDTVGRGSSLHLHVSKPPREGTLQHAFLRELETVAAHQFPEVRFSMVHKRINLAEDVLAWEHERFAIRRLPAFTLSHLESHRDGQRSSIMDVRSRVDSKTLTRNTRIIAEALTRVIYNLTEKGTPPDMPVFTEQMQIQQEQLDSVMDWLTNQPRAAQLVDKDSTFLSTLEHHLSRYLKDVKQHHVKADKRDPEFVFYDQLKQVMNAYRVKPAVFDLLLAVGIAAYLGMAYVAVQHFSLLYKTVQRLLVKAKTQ
# UniProt P24468: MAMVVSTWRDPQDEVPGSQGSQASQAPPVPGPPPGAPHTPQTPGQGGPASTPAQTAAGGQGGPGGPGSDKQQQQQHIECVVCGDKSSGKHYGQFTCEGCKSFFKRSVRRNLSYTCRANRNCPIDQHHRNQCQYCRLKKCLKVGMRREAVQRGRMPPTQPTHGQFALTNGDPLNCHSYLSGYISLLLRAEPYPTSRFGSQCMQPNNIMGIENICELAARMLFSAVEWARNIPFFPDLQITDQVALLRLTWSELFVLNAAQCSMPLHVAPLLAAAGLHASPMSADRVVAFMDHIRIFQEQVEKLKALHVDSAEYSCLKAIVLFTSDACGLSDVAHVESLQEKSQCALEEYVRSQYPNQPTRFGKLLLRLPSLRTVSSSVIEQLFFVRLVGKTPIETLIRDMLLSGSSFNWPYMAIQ
# UniProt Q8N183: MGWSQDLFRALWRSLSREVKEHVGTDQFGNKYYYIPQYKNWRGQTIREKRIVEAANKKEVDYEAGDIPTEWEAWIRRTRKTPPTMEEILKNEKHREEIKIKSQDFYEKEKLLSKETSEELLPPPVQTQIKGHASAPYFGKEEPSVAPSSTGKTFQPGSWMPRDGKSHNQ
# UniProt P55209: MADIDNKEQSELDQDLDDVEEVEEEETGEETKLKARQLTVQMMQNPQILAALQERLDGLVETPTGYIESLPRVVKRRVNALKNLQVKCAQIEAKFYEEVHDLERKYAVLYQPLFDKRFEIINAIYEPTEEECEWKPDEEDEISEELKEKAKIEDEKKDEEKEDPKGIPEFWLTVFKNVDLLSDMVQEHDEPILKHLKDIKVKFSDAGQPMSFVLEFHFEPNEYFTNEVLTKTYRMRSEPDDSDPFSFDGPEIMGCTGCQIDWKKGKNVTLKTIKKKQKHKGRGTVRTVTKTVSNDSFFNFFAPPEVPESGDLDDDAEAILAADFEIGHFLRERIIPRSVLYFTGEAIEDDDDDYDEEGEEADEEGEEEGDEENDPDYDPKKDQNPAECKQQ
# UniProt Q8N8Q9: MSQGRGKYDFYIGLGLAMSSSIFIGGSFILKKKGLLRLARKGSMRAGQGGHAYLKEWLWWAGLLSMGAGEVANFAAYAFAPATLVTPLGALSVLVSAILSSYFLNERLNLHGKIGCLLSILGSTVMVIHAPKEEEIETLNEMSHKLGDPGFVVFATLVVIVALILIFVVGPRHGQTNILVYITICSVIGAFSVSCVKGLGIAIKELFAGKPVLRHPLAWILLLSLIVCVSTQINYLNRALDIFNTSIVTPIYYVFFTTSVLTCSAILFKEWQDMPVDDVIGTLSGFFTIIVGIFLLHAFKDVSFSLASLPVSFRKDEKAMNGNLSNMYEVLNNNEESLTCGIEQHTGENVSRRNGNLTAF
# UniProt Q16795, whole entry: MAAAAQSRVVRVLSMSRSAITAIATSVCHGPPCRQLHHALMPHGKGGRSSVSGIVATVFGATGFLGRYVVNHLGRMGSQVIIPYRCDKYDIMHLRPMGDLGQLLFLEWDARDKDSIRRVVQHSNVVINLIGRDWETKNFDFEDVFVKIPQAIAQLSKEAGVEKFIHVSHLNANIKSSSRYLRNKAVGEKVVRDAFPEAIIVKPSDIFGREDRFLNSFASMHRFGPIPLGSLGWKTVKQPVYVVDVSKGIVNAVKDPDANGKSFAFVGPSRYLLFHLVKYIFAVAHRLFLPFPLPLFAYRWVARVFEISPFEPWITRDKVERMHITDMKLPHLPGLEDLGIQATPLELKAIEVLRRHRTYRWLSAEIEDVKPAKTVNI
# UniProt O95167, whole entry: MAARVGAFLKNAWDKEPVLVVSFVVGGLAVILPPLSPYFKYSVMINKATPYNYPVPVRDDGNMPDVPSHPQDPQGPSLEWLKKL
# UniProt Q5JS37: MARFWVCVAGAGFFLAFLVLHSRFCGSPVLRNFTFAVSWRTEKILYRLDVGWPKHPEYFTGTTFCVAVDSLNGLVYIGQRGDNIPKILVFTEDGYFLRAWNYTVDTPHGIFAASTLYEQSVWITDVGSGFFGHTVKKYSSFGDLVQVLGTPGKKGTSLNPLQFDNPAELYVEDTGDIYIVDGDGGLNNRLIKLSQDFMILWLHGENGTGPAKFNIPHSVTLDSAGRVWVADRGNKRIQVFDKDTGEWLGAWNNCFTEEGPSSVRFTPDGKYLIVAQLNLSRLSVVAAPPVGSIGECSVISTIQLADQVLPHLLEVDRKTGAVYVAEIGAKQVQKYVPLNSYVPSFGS
# UniProt Q7RTR2: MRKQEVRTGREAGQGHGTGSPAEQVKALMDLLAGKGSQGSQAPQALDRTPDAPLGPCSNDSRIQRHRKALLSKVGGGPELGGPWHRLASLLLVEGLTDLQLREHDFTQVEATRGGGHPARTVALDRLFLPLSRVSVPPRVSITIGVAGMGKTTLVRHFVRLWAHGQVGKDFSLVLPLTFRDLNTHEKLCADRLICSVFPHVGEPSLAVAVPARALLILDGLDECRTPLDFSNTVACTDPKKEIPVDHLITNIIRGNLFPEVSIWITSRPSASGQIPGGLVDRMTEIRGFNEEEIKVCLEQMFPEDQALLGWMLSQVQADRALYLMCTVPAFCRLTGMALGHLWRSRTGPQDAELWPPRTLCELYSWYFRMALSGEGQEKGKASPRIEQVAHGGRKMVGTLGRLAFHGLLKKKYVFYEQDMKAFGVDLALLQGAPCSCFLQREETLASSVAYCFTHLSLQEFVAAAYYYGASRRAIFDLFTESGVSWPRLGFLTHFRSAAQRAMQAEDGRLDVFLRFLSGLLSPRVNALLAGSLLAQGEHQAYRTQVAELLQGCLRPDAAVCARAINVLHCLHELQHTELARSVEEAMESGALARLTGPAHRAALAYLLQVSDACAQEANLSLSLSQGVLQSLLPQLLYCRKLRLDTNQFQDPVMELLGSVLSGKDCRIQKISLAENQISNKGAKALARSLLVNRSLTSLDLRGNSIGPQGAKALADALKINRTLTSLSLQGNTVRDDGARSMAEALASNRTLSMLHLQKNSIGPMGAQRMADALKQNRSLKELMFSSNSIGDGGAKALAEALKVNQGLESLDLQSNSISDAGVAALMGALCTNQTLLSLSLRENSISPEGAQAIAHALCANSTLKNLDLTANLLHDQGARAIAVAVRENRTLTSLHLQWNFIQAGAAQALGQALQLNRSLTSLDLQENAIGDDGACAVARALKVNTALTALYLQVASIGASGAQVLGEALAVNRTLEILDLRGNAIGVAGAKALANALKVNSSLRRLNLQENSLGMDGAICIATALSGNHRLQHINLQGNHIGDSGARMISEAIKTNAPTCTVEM
# UniProt Q8TD19: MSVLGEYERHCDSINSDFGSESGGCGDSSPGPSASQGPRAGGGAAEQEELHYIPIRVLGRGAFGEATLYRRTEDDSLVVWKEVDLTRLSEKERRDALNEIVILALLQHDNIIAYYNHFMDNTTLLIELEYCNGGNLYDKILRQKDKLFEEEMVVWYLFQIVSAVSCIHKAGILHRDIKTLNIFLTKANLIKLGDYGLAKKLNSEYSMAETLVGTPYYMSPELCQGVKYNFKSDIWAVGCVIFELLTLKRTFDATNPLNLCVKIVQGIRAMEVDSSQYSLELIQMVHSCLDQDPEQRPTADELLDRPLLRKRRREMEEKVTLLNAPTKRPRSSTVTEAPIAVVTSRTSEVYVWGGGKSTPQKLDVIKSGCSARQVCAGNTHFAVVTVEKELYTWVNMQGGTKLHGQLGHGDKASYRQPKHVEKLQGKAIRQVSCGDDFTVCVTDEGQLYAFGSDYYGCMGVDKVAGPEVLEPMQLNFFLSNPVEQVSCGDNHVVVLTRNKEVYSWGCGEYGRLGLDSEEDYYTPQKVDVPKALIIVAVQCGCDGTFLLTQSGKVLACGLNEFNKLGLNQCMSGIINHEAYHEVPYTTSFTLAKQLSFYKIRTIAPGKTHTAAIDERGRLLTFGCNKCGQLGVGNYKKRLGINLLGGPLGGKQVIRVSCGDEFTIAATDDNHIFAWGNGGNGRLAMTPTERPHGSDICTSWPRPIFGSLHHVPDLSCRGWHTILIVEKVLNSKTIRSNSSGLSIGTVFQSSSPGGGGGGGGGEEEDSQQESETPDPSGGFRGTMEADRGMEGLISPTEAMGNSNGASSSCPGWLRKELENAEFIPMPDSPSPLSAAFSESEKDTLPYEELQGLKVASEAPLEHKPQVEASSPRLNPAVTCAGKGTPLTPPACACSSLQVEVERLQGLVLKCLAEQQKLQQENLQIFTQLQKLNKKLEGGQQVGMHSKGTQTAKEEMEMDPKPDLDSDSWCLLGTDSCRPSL
# UniProt O00483, whole entry: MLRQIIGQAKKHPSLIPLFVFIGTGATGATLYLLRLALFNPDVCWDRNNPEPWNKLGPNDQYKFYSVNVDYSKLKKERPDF
# Compound: COc1ccc(Cn2ccc3cc(C)c(C(=O)NO)cc32)cc1
# Experiment: dose-dependent thermal stabilisation call (2D-TPP, DLPTP, 10% FDR) (binary (1 = stabilised)); higher = stabilised by the compound
# Conditions: system: HL-60 intact cells; concentration range 0.04-10 µM
# Description: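 2D thermal proteome profiling in intact HL-60 cells treated with BRD-3811 (0, 0.04, 0.29, 2, 10 uM) for 90 min at 37 C, then heated 3 min at one of 12 temperatures (42-63.9 C). Soluble protein was quantified by TMT10 MS. The value is the DLPTP call of the paper: dose-dependent thermal stabilisation over all temperatures at 10% FDR (F-test of a dose-response against a flat model); one experiment, one call per tested protein.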
row,Target,dose-dependent thermal stabilisation call
1,ND4 (UniProt P03905),inactive: 0
2,NUDT4 (UniProt Q9NZJ9),inactive: 0
3,NCDN (UniProt Q9UBB6),inactive: 0
4,NOTCH1 (UniProt P46531),inactive: 0
5,OGDH (UniProt Q02218),inactive: 0
6,NFKBIB (UniProt Q15653),inactive: 0
7,NUCB1 (UniProt Q02818),inactive: 0
8,NCLN (UniProt Q969V3),inactive: 0
9,NOL7 (UniProt Q9UMY1),inactive: 0
10,NKRF (UniProt O15226),inactive: 0
11,NR2F2 (UniProt P24468),inactive: 0
12,NDUFAF2 (UniProt Q8N183),inactive: 0
13,NAP1L1 (UniProt P55209),inactive: 0
14,NOL10 (UniProt Q9BSC4),inactive: 0
15,NIPA2 (UniProt Q8N8Q9),inactive: 0
16,NAPRT1 (UniProt Q6XQN6),inactive: 0
17,NME6 (UniProt O75414),inactive: 0
18,NOC2L (UniProt Q9Y3T9),inactive: 0

# Copied from above (two entries):
row,Target,dose-dependent thermal stabilisation call
16,NAPRT1 (UniProt Q6XQN6),inactive: 0
17,NME6 (UniProt O75414),inactive: 0

# Next part

row,Target,dose-dependent thermal stabilisation call
1,NR3C1 (UniProt P04150),inactive: 0
2,NDUFA9 (UniProt Q16795),inactive: 0
3,NT5DC3 (UniProt Q86UY8),inactive: 0
4,NCOA7 (UniProt Q8NI08),inactive: 0
5,NXF1 (UniProt Q9UBU9),inactive: 0
6,NRP1 (UniProt O14786),inactive: 0
7,NBEA (UniProt Q8NFP9),inactive: 0
8,NDUFA3 (UniProt O95167),inactive: 0
9,NHLRC3 (UniProt Q5JS37),inactive: 0
10,NAT14 (UniProt Q8WUY8),inactive: 0
11,NLRC3 (UniProt Q7RTR2),inactive: 0
12,NAP1L4 (UniProt Q99733),inactive: 0
13,NOL8 (UniProt Q76FK4),inactive: 0
14,NEK9 (UniProt Q8TD19),inactive: 0
15,NOL6 (UniProt Q9H6R4),inactive: 0
16,NRBF2 (UniProt Q96F24),inactive: 0
17,NUP93 (UniProt Q8N1F7),inactive: 0
18,NDUFA4 (UniProt O00483),inactive: 0
